Reference: PubChem BioAssay AID1671190 (National Center for Advancing Translational Sciences (NCATS), 2021)
Out of some 580,000 compounds screened, about 6,100 (1.1%) were called active. The inconclusive results got no clear call from the source; some entries with a clear call stand among them for comparison. The call rests on the fitted dose curve; in most records, active means well fitted inhibition curve with a large enough effect; inconclusive means small, poorly fitted or top-dose-only effect, or another doubt; inactive means no such curve, though single readings can be large or run the other way. Potencies beside an inconclusive call are fits to weak or partial responses and may not hold up.

Protein sequences, listed by entry. Tags and fused reporters are not part of them. Lines headed by an entry give the natural chain unless they say otherwise; changes in a name come on top.
UniProt P18054: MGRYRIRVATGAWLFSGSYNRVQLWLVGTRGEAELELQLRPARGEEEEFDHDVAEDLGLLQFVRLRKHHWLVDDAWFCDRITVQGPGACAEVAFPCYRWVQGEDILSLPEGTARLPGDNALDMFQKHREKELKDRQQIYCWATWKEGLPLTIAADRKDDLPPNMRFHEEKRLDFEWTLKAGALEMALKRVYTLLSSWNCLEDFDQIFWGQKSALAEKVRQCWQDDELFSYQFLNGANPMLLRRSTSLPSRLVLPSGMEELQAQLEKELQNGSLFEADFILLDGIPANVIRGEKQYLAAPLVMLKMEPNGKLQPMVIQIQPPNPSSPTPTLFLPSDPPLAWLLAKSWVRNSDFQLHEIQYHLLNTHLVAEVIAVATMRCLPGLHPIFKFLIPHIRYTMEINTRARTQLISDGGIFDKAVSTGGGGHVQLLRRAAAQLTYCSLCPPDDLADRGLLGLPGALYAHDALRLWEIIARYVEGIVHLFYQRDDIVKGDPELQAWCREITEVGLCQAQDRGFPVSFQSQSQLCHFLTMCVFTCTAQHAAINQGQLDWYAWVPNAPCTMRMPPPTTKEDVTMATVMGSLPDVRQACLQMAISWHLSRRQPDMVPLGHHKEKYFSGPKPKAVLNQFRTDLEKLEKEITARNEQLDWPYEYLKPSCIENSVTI

These molecules were tested against Polyunsaturated fatty acid lipoxygenase ALOX12 (Homo sapiens) (UniProt P18054) (assay: Primary qHTS assay for inhibitors of human arachidonate 12S-lipoxygenase (ALOX12): Round 2). Conditions: purified 12hLO, xylenol orange hydroperoxide absorbance; series mostly up to 108 µM.
How it was run: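 Purified human 12hLO at 150 nM in 25 mM Hepes, 0.01% Triton X-100, pH 7.0, preincubated 15 min at room temperature with compound. Reaction started with 40 uM arachidonic acid, 30 min at room temperature. Hydroperoxide measured by Fe-xylenol orange, 573/405 nm absorbance ratio.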
Potency means the concentration at half of the fitted maximal effect.

Structure (SMILES) | Potency
Cc1ccc(-c2cc(C(=O)OCC(=O)NC34CC5CC(CC(C5)C3)C4)c3ccccc3n2)o1 | active: 1.26 µM
CC(C)NC(=O)Nc1ccc2c(c1)C(=O)N([C@H](C)CO)C[C@H](C)[C@@H](CN(C)S(=O)(=O)c1cn(C)cn1)O2 | inconclusive: 50.1 µM [inhibitor, single point]
Cn1ncc(SCc2ccccc2)c(Cl)c1=O | inconclusive: 112 µM [inhibitor, single point]
Cc1cccc(N2CCN(S(=O)(=O)c3ccc(-c4ccc(=O)[nH]n4)o3)CC2)c1C | inactive
CCCCc1ccc(NC(=S)NCc2ccc(OC)cc2)cc1 | inconclusive: 35.5 µM [inhibitor, partial curve, poor fit]
O=C(NC1CCCCCC1)c1cc2ccccc2oc1=O | inactive
CCCCCn1nc(C(=O)Nc2nc(-c3ccccn3)cs2)c2ccccc2c1=O | inactive
CNC(=O)C1CCC(=O)N1Cc1c[nH]c2ccccc12 (configuration not stated) | inactive
CCNC(=O)c1c(NC(C)=O)sc2c1CCCC2 | inactive
CC(C)(C)CC(=O)NCC(=O)C(C#N)c1ccc2ccccc2n1 (configuration not stated) | inconclusive: 28.2 µM [inhibitor, partial curve, poor fit]
Cc1nc(NCc2ccccc2)sc1C(=O)NC1CCCC1 | inactive
O=C(NCc1ccco1)c1ccccc1Nc1ccc(F)cc1 | inconclusive: 39.8 µM [inhibitor, partial curve, poor fit]
COc1ccc(OC)c(CCNC(=O)CCCn2c(=O)c3cccn3c3ccc(F)cc32)c1 | inactive
CCN(CC)c1ccc(N=Cc2ccc(N(CC)CC)cc2O)cc1 | inconclusive: 50.1 µM [inhibitor, partial curve, poor fit]
CSCc1ccc(C(=O)N2CCN(c3ccc(C)cc3)C(=O)C2)o1 | inconclusive: 39.8 µM [inhibitor, single point]
CSc1ccc(S(=O)(=O)N2CCC(C(=O)NCc3ccco3)CC2)cc1 | inactive
CCN1C(=O)N/C(=C/c2cn(CC(=O)Nc3ccccc3)c3ccccc23)C1=O | inconclusive: 50.1 µM [inhibitor, partial curve, poor fit]
COc1ccc2c(c1)CC/C(=C\c1ccc(C)o1)C2=O | inconclusive: 10 µM [inhibitor, full curve, poor fit]
CCCCN(C(=O)CSCc1ccc(C)cc1)c1c(N)n(CCC)c(=O)[nH]c1=O | inconclusive: 50.1 µM [inhibitor, partial curve, poor fit]
CC1CCN(Cc2oc(CO)cc(=O)c2O)CC1 | inconclusive: 14.1 µM [inhibitor, full curve, poor fit]
CC(=O)C[C@H](O)CC(=O)[C@@H]1OC(=O)[C@H](C)C/C=C\Cc2ccccc21 | inconclusive: 50.1 µM [inhibitor, partial curve, poor fit]
O=[N+]([O-])c1ccccc1/C=N/OCc1ccc(Br)cc1 | inactive
CC(C)(C)C(=O)NCCc1nc2ccccc2n1CCCCOc1ccccc1 | inactive

Some of the entries so far, in markdown:

| Structure (SMILES) | Potency |
| --- | --- |
| Cc1ccc(-c2cc(C(=O)OCC(=O)NC34CC5CC(CC(C5)C3)C4)c3ccccc3n2)o1 | active: 1.26 µM |
| CC(C)NC(=O)Nc1ccc2c(c1)C(=O)N([C@H](C)CO)C[C@H](C)[C@@H](CN(C)S(=O)(=O)c1cn(C)cn1)O2 | inconclusive: 50.1 µM [inhibitor, single point] |
| Cn1ncc(SCc2ccccc2)c(Cl)c1=O | inconclusive: 112 µM [inhibitor, single point] |
| Cc1cccc(N2CCN(S(=O)(=O)c3ccc(-c4ccc(=O)[nH]n4)o3)CC2)c1C | inactive |
| CCCCc1ccc(NC(=S)NCc2ccc(OC)cc2)cc1 | inconclusive: 35.5 µM [inhibitor, partial curve, poor fit] |
| O=C(NC1CCCCCC1)c1cc2ccccc2oc1=O | inactive |
| CNC(=O)C1CCC(=O)N1Cc1c[nH]c2ccccc12 (configuration not stated) | inactive |
| CCNC(=O)c1c(NC(C)=O)sc2c1CCCC2 | inactive |
| CC(C)(C)CC(=O)NCC(=O)C(C#N)c1ccc2ccccc2n1 (configuration not stated) | inconclusive: 28.2 µM [inhibitor, partial curve, poor fit] |
| Cc1nc(NCc2ccccc2)sc1C(=O)NC1CCCC1 | inactive |
| COc1ccc(OC)c(CCNC(=O)CCCn2c(=O)c3cccn3c3ccc(F)cc32)c1 | inactive |
| CSCc1ccc(C(=O)N2CCN(c3ccc(C)cc3)C(=O)C2)o1 | inconclusive: 39.8 µM [inhibitor, single point] |
| CSc1ccc(S(=O)(=O)N2CCC(C(=O)NCc3ccco3)CC2)cc1 | inactive |
| CCN1C(=O)N/C(=C/c2cn(CC(=O)Nc3ccccc3)c3ccccc23)C1=O | inconclusive: 50.1 µM [inhibitor, partial curve, poor fit] |
| COc1ccc2c(c1)CC/C(=C\c1ccc(C)o1)C2=O | inconclusive: 10 µM [inhibitor, full curve, poor fit] |
| CCCCN(C(=O)CSCc1ccc(C)cc1)c1c(N)n(CCC)c(=O)[nH]c1=O | inconclusive: 50.1 µM [inhibitor, partial curve, poor fit] |
| CC1CCN(Cc2oc(CO)cc(=O)c2O)CC1 | inconclusive: 14.1 µM [inhibitor, full curve, poor fit] |
| CC(=O)C[C@H](O)CC(=O)[C@@H]1OC(=O)[C@H](C)C/C=C\Cc2ccccc21 | inconclusive: 50.1 µM [inhibitor, partial curve, poor fit] |
| O=[N+]([O-])c1ccccc1/C=N/OCc1ccc(Br)cc1 | inactive |
| CC(C)(C)C(=O)NCCc1nc2ccccc2n1CCCCOc1ccccc1 | inactive |

The listing continues:

Structure (SMILES) | Potency
O=C(O)CC(C(=O)O)c1ccc(OCCCCOc2ccc(C(CC(=O)O)C(=O)O)cc2)cc1 (configuration not stated) | inconclusive: 31.6 µM [inhibitor, partial curve, poor fit]
CC(C)CCC(=O)N1CCCC(CN2CCN(c3ccccn3)CC2)C1 (configuration not stated) | inconclusive: 112 µM [inhibitor, single point]
NC(=O)c1ccc(COC(=O)CCC(=O)c2ccc(Cl)cc2)c([N+](=O)[O-])c1 | inconclusive: 50.1 µM [inhibitor, partial curve, poor fit]
CC(C)c1ccc(/C=C(/C(=O)O)c2cccs2)cc1 | inactive
CN(CC(=O)Nc1ccc(C#N)cc1)Cc1ccc(Cl)cc1 | inconclusive: 50.1 µM [inhibitor, partial curve, poor fit]
O=C(CN1C(=O)C2CCCCC2C1=O)Nc1ccc(OC(F)F)c(Cl)c1 (configuration not stated) | inconclusive: 126 µM [inhibitor, single point]
Nc1c2c(nc3ccc(Br)cc13)N(Cc1ccccc1)CC2 | inconclusive: 112 µM [inhibitor, single point]
COc1cccc(Nc2nc(-c3cc4cc(Br)ccc4oc3=O)cs2)c1 | inconclusive: 28.2 µM [inhibitor, partial curve]
Cc1cc(C)n(-c2ncc3c(n2)N(C)CCOC3=O)n1 | inconclusive: 100 µM [inhibitor, single point]
COc1ccc(/C=N/n2c(=O)[nH]c3c([nH]c4ccc(C)cc43)c2=O)cc1CN1CCOCC1 | inconclusive: 15.8 µM [inhibitor, full curve, poor fit]
CC1(C(=O)NS(=O)(=O)c2cccc(F)c2)CCN1C(=O)CC1CCCC1 (configuration not stated) | inconclusive: 50.1 µM [inhibitor, partial curve, poor fit]
O=C(Nc1ccc(NC(=S)NC(=O)C(c2ccccc2)c2ccccc2)cc1)c1ccccc1 | inconclusive: 12.6 µM [inhibitor, partial curve, poor fit]
N#C/C(=C\c1ccc(-c2nc3ccccc3s2)o1)C(N)=O | inactive
Cc1ccc(C)c(OCC(=O)Nc2ccc(Br)cc2C(=O)O)c1 | inconclusive: 44.7 µM [inhibitor, partial curve, poor fit]
O=C(Nc1ccc(Cl)c(Cl)c1)Nc1nccs1 | inconclusive: 35.5 µM [inhibitor, partial curve]
Cc1ccc(C(=O)NCCSC2CCCCC2)cc1S(=O)(=O)Nc1ccccc1 | inconclusive: 35.5 µM [inhibitor, partial curve, poor fit]
CCNc1c(NC(=O)Nc2ccc(OCC)cc2)c(=O)oc2ccccc12 | inconclusive: 44.7 µM [inhibitor, partial curve, poor fit]
CCN(CC)CCSCCOC(=O)c1oc2ccccc2c1C | inconclusive: 25.1 µM [inhibitor, partial curve, poor fit]
Cc1c(Br)c(-c2n[nH]c(=S)n2Cc2ccco2)nn1C | inconclusive: 50.1 µM [inhibitor, partial curve]
COc1cccc(OC)c1C(=O)Oc1ccc2c(c1)O/C(=C\c1ccncc1)C2=O | inactive
CC(C)CN(C(=O)CSc1nc2ccccc2[nH]1)c1c(N)n(Cc2ccccc2)c(=O)[nH]c1=O | inactive
OCCN(Cc1cccnc1)Cc1ccccn1 | inactive
CCCc1cc(=O)n2nc(N(C)CC(=O)Nc3cccc(F)c3)sc2n1 | inactive

Structure (SMILES) | Potency
O=C(c1ccc(F)cc1Cl)N1CCC(n2cc(-c3nc(-c4ccccc4)no3)nn2)CC1 | inconclusive: 50.1 µM [inhibitor, partial curve]
COc1ccc([C@H]2CC(=O)C[C@@H](CCn3nnc4ccccc43)O2)cc1 | inactive
CC(=O)Nc1cc(NC(C)=O)cc(C(=O)N2CCCC3CCCCC32)c1 (configuration not stated) | inactive
Cc1n[nH]c(=O)c2c(NC(=O)CSc3nc4ccccc4c(=O)n3-c3ccc(OC(F)F)cc3)oc(C)c12 | inconclusive: 112 µM [inhibitor, partial curve, poor fit]
N#CC1CCN(C(=O)c2nc(-c3ccc(Cl)cc3)c3ccccn23)CC1 | inactive
COc1cc(-c2nc(S(=O)(=O)c3ccc(C)cc3)c(N3CCOCC3)o2)cc(OC)c1OC | inactive
Cn1cnc2c(F)c(Nc3ccc(Br)cc3F)c(C(=O)NOCCO)cc21 | inconclusive: 54.4 µM [inhibitor, single point]
COC(=O)c1ccc(NC(=O)C(=O)N2CCN(C(=S)Nc3ccc(OC)cc3)CC2)cc1 | inactive
CS(=O)(=O)c1ccc(-c2cnc([C@@H]3COCCN3C3CCOCC3)[nH]2)cc1 | inactive
C[C@H](CO)N1C[C@H](C)[C@H](CN(C)CC2CCCCC2)Oc2ccc(NS(=O)(=O)c3ccc(F)cc3)cc2CC1=O | inactive
COc1ccc(NS(=O)(=O)c2ccc3c(c2)NC(=O)CS3)cc1 | inconclusive: 50.1 µM [inhibitor, single point]
O=C(Cc1ccc(-c2csc(Nc3ccc(F)cc3)n2)s1)N1CCOCC1 | active: 31.6 µM
Cc1ccc(S(=O)(=O)C(CNS(=O)(=O)c2cc(F)ccc2F)c2cccs2)cc1 (configuration not stated) | inconclusive: 89.1 µM [inhibitor, partial curve, poor fit]
COc1cc(CNC(=O)c2cnc(SC)nc2-c2ccccc2)cc(OC)c1OC | inactive
COc1cc(C2NC(C(=O)O)Cc3c2[nH]c2ccccc32)cc(OC)c1OC (configuration not stated) | inactive
Cc1nn2c(c1-c1ccccc1Oc1ccccc1)N(C(=O)c1cccc(C#N)c1)CCC2 | inconclusive: 70.8 µM [inhibitor, full curve, poor fit]
O=C1c2cccc3cccc(c23)C(=O)N1CC1CCN(CC(O)COCc2ccc3c(c2)OCO3)CC1 (configuration not stated) | inconclusive: 112 µM [inhibitor, partial curve, poor fit]
CC(C)(C)c1ccc(C(=O)NCC(=O)NC2CCCC2)cc1 | inconclusive: 50.1 µM [inhibitor, single point]
COc1ccc(-n2nc3c(c2NC(=O)c2ccc4c(c2)OCO4)CS(=O)(=O)C3)cc1 | inconclusive: 50.1 µM [inhibitor, partial curve, poor fit]
OC[C@@H]1CN(Cc2ccc(Cl)cc2)C[C@H](n2cnc3c(NC4CCC4)ncnc32)O1 | inconclusive: 100 µM [inhibitor, single point]
O=C(NCc1ccc(-c2nc3ccccc3s2)o1)c1ccc(F)cc1F | inconclusive: 39.8 µM [inhibitor, partial curve, poor fit]
